Laboratory results taken from the supplement of paper PMC4604168 (melanoma cell lines).
Some of the results follow. Many values rest on one well or one pass, so single values are uncertain.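 Cells were imaged in 1,536-well plates, and nuclei stained with an antibody against cleaved PARP were counted against all DNA-stained nuclei to give the apoptosis fraction. Screening doses were chosen to leave most cells alive, and resting and induced cleaved-PARP levels differ strongly between cell lines.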

What was measured:
Test in all cases: cleaved PARP positive nuclei fraction relative to DMSO control; melanoma cells; higher = more apoptosis
Conditions in all cases: library dose: low library concentration; 72 h
WM115 = system: WM115
WM1716 = system: WM1716
WM1745 = system: WM1745
WM3526 = system: WM3526
WM3619 = system: WM3619
WM451Lu = system: WM451Lu

Question: What does the source list for `CS(=O)(=O)c1ccc(C(=O)Nc2ccc(Cl)c(-c3ccccn3)c2)c(Cl)c1` [vismodegib] + CN(NC(=O)CC(=O)NN(C)C(=S)c1ccccc1)C(=S)c1ccccc1 [STA4783] (first compound 1 µM, partner dose 0.006 µM)?
Answer: cleaved PARP positive nuclei fraction (WM115): 58.3%; cleaved PARP positive nuclei fraction (WM1716): 98%; cleaved PARP positive nuclei fraction (WM1745): 231%; cleaved PARP positive nuclei fraction (WM3526): 262%; cleaved PARP positive nuclei fraction (WM3619): 161%; cleaved PARP positive nuclei fraction (WM451Lu): 59.3%

Question: For `NC(=O)c1ccc(N(C(N)=O)c2c(F)cccc2F)nc1-c1ccc(F)cc1F` + CN(C)S(=O)(=O)c1ccc2c(c1)/C(=C/c1cc3c([nH]1)CCCC3)C(=O)N2 [SU6656] (first compound 0.4 µM, partner dose 0.4 µM), which “cleaved PARP positive nuclei fraction” value (WM115) is on record?
Answer: 119%

Question: What about the “cleaved PARP positive nuclei fraction” value (WM1716) of the same molecule?
Answer: 106%

Question: And the “cleaved PARP positive nuclei fraction” value (WM1745)?
Answer: 94.9%

Question: What about the “cleaved PARP positive nuclei fraction” value (WM3526) of the same molecule?
Answer: 62.2%

Question: And the “cleaved PARP positive nuclei fraction” value (WM3619)?
Answer: 91.3%

Question: And the “cleaved PARP positive nuclei fraction” value (WM451Lu)?
Answer: 362%

Question: Which “cleaved PARP positive nuclei fraction” value (WM115) does the source give for `Cn1cnc2c(F)c(Nc3ccc(Br)cc3Cl)c(C(=O)NOCCO)cc21` [selumetinib] + Clc1ccc(Nc2nnc(Cc3ccncc3)c3ccccc23)cc1 [vatalanib] (first compound 0.015 µM, partner dose 2 µM) here?
Answer: 143%

Question: What about the “cleaved PARP positive nuclei fraction” value (WM1716) of the same molecule?
Answer: 92.9%

Question: What about the “cleaved PARP positive nuclei fraction” value (WM1745) of the same molecule?
Answer: 91.6%

Question: What about the “cleaved PARP positive nuclei fraction” value (WM3526) of the same molecule?
Answer: 103%

Question: What about the “cleaved PARP positive nuclei fraction” value (WM3619) of the same molecule?
Answer: 92.6%

Question: What about the “cleaved PARP positive nuclei fraction” value (WM451Lu) of the same molecule?
Answer: 106%

Question: Which results are given for `C[C@@H](N)c1ccc(C(=O)Nc2ccnc3[nH]ccc23)cc1` + COc1cc2ncnc(Nc3ccc(Oc4ccccc4)cc3)c2cc1OC [SrcI1] (first compound 0.4 µM, partner dose 2 µM)?
Answer: cleaved PARP positive nuclei fraction (WM115): 73.9%; cleaved PARP positive nuclei fraction (WM1716): 210%; cleaved PARP positive nuclei fraction (WM1745): 219%; cleaved PARP positive nuclei fraction (WM3526): 68.7%; cleaved PARP positive nuclei fraction (WM3619): 77.3%; cleaved PARP positive nuclei fraction (WM451Lu): 198%

Question: How did the “cleaved PARP positive nuclei fraction” value (WM115) turn out when `NC(=O)c1ccc(N(C(N)=O)c2c(F)cccc2F)nc1-c1ccc(F)cc1F` + Cc1cc([N+](=O)[O-])ccc1NS(=O)(=O)c1cc(Cl)ccc1Cl [FH535] (first compound 0.4 µM, partner dose 1 µM) was run?
Answer: 18.6%

Question: And the “cleaved PARP positive nuclei fraction” value (WM1716)?
Answer: 63.3%

Question: What about the “cleaved PARP positive nuclei fraction” value (WM1745) of the same molecule?
Answer: 97.2%

Question: What about the “cleaved PARP positive nuclei fraction” value (WM3526) of the same molecule?
Answer: 266%

Question: And the “cleaved PARP positive nuclei fraction” value (WM3619)?
Answer: 75.2%

Question: What about the “cleaved PARP positive nuclei fraction” value (WM451Lu) of the same molecule?
Answer: 35.6%

Question: `NC(=O)c1ccc(N(C(N)=O)c2c(F)cccc2F)nc1-c1ccc(F)cc1F` + Nc1ncn([C@H]2C[C@H](O)[C@@H](CO)O2)c(=O)n1 [decitabine] (first compound 0.4 µM, partner dose 0.1 µM) was tested. Which “cleaved PARP positive nuclei fraction” value (WM115) did it give?
Answer: 36.7%

Question: What about the “cleaved PARP positive nuclei fraction” value (WM1716) of the same molecule?
Answer: 77.4%

Question: And the “cleaved PARP positive nuclei fraction” value (WM1745)?
Answer: 110%

Question: What about the “cleaved PARP positive nuclei fraction” value (WM3526) of the same molecule?
Answer: 81.4%

Question: What about the “cleaved PARP positive nuclei fraction” value (WM3619) of the same molecule?
Answer: 116%

Question: And the “cleaved PARP positive nuclei fraction” value (WM451Lu)?
Answer: 84.9%

Question: How did the “cleaved PARP positive nuclei fraction” value (WM115) turn out when `CN(c1ncccc1CNc1nc(Nc2ccc3c(c2)CC(=O)N3)ncc1C(F)(F)F)S(C)(=O)=O` + COc1cc(N2CCC(N3CCN(C)CC3)CC2)ccc1Nc1ncc(Cl)c(Nc2ccccc2S(=O)(=O)C(C)C)n1 [NVP-TAE684] (first compound 0.08 µM, partner dose 0.08 µM) was run?
Answer: 62.1%

Question: What about the “cleaved PARP positive nuclei fraction” value (WM1716) of the same molecule?
Answer: 70.4%

Question: And the “cleaved PARP positive nuclei fraction” value (WM1745)?
Answer: 103%

Question: What about the “cleaved PARP positive nuclei fraction” value (WM3526) of the same molecule?
Answer: 74.4%

Question: What about the “cleaved PARP positive nuclei fraction” value (WM3619) of the same molecule?
Answer: 97.1%

Question: What about the “cleaved PARP positive nuclei fraction” value (WM451Lu) of the same molecule?
Answer: 72.9%

Question: Which results are given for `CN(c1ncccc1CNc1nc(Nc2ccc3c(c2)CC(=O)N3)ncc1C(F)(F)F)S(C)(=O)=O` + N#Cc1c(O)c2c(-c3ccc(-c4ccccc4O)cc3)csc2[nH]c1=O [A769662] (first compound 0.08 µM, partner dose 2 µM)?
Answer: cleaved PARP positive nuclei fraction (WM115): 301%; cleaved PARP positive nuclei fraction (WM1716): 109%; cleaved PARP positive nuclei fraction (WM1745): 107%; cleaved PARP positive nuclei fraction (WM3526): 385%; cleaved PARP positive nuclei fraction (WM3619): 102%; cleaved PARP positive nuclei fraction (WM451Lu): 192%

Question: For `CCN(CC)CCNC(=O)c1c(C)[nH]c(/C=C2\C(=O)Nc3ccc(F)cc32)c1C` [sunitinib] + Cc1cc(N2CCOCC2)cc2[nH]c(-c3c(NC[C@@H](O)c4cccc(Cl)c4)cc[nH]c3=O)nc12 [BMS536924] (first compound 0.4 µM, partner dose 0.2 µM), which “cleaved PARP positive nuclei fraction” value (WM115) is on record?
Answer: 48.7%

Question: And the “cleaved PARP positive nuclei fraction” value (WM1716)?
Answer: 85.2%

Question: And the “cleaved PARP positive nuclei fraction” value (WM1745)?
Answer: 145%

Question: And the “cleaved PARP positive nuclei fraction” value (WM3526)?
Answer: 154%

Question: And the “cleaved PARP positive nuclei fraction” value (WM3619)?
Answer: 104%

Question: And the “cleaved PARP positive nuclei fraction” value (WM451Lu)?
Answer: 171%

Question: Which results are given for `CC(=O)O[C@@]12CO[C@@H]1C[C@H](O)[C@@]1(C)C(=O)[C@H](O)C3=C(C)[C@@H](OC(=O)[C@H](O)[C@@H](NC(=O)OC(C)(C)C)c4ccccc4)C[C@@](O)([C@@H](OC(=O)c4ccccc4)[C@H]21)C3(C)C` [Docetaxel] + C=C(c1ccc(C(=O)O)cc1)c1cc2c(cc1C)C(C)(C)CCC2(C)C [Bexarotene] (first compound 0.0001 µM, partner dose 2 µM)?
Answer: cleaved PARP positive nuclei fraction (WM115): 495%; cleaved PARP positive nuclei fraction (WM1716): 73.1%; cleaved PARP positive nuclei fraction (WM1745): 198%; cleaved PARP positive nuclei fraction (WM3526): 222%; cleaved PARP positive nuclei fraction (WM3619): 103%; cleaved PARP positive nuclei fraction (WM451Lu): 212%

Question: How did the “cleaved PARP positive nuclei fraction” value (WM115) turn out when `CC1(C)CCC(c2ccc(Cl)cc2)=C(CN2CCN(c3ccc(C(=O)NS(=O)(=O)c4ccc(N[C@H](CCN5CCOCC5)CSc5ccccc5)c(S(=O)(=O)C(F)(F)F)c4)cc3)CC2)C1` + Cn1cncc1[C@@](N)(c1ccc(Cl)cc1)c1ccc2c(c1)c(-c1cccc(Cl)c1)cc(=O)n2C [tipifarnib] (first compound 0.4 µM, partner dose 0.01 µM) was run?
Answer: 527%

Question: And the “cleaved PARP positive nuclei fraction” value (WM1716)?
Answer: 223%

Question: What about the “cleaved PARP positive nuclei fraction” value (WM1745) of the same molecule?
Answer: 803%

Question: What about the “cleaved PARP positive nuclei fraction” value (WM3526) of the same molecule?
Answer: 74.5%

Question: What about the “cleaved PARP positive nuclei fraction” value (WM3619) of the same molecule?
Answer: 157%

Question: What about the “cleaved PARP positive nuclei fraction” value (WM451Lu) of the same molecule?
Answer: 52.3%

Question: Which “cleaved PARP positive nuclei fraction” value (WM115) does the source give for `CC1(C)CCC(c2ccc(Cl)cc2)=C(CN2CCN(c3ccc(C(=O)NS(=O)(=O)c4ccc(N[C@H](CCN5CCOCC5)CSc5ccccc5)c(S(=O)(=O)C(F)(F)F)c4)cc3)CC2)C1` + Cc1ccc(Nc2nccc(N(C)c3ccc4c(C)n(C)nc4c3)n2)cc1S(N)(=O)=O [Pazopanib] (first compound 0.4 µM, partner dose 0.4 µM) here?
Answer: 222%

Question: And the “cleaved PARP positive nuclei fraction” value (WM1716)?
Answer: 74.8%

Question: What about the “cleaved PARP positive nuclei fraction” value (WM1745) of the same molecule?
Answer: 643%

Question: And the “cleaved PARP positive nuclei fraction” value (WM3526)?
Answer: 49.2%

Question: And the “cleaved PARP positive nuclei fraction” value (WM3619)?
Answer: 99.4%

Question: And the “cleaved PARP positive nuclei fraction” value (WM451Lu)?
Answer: 212%
